Reference: patent publication US20080194611A1, “Modulation of Cell Barrier Dysfunction” (priority 2005, published 2008)

Experiments:
MDCK cells = assay type: cell-based
[1] = meta-analysis; cited from earlier work

In the case of `CN1CC[C@]23c4c5ccc(O)c4O[C@H]2[C@@H](O)C=C[C@H]3[C@H]1C5` [morphine], the “additional TEER decrease” value (MDCK cells) is given as “about 15%” and the “dose-adjusted Cmax” value [1] is given as 1-10 nM/L per mg of morphine.
